Test results taken from PubChem BioAssay AID588590 (National Center for Advancing Translational Sciences (NCATS), 2011).
Hit rate of the full screen: of about 390,000 compounds, about 4,000 (1%) were called active. Inconclusive means that the source gave no clear call. Such entries were picked first, then a sample of the others. The call rests on the fitted dose curve; in most records, active means well fitted inhibition curve with a large enough effect; inconclusive means small, poorly fitted or top-dose-only effect, or another doubt; inactive means no such curve, though single readings can be large or run the other way. Potencies beside an inconclusive call are fits to weak or partial responses and may not hold up.

Protein sequences, listed by entry. Tags and fused reporters are not part of them. Lines headed by an entry give the natural chain unless they say otherwise; changes in a name come on top.
UniProt Q9UNA4: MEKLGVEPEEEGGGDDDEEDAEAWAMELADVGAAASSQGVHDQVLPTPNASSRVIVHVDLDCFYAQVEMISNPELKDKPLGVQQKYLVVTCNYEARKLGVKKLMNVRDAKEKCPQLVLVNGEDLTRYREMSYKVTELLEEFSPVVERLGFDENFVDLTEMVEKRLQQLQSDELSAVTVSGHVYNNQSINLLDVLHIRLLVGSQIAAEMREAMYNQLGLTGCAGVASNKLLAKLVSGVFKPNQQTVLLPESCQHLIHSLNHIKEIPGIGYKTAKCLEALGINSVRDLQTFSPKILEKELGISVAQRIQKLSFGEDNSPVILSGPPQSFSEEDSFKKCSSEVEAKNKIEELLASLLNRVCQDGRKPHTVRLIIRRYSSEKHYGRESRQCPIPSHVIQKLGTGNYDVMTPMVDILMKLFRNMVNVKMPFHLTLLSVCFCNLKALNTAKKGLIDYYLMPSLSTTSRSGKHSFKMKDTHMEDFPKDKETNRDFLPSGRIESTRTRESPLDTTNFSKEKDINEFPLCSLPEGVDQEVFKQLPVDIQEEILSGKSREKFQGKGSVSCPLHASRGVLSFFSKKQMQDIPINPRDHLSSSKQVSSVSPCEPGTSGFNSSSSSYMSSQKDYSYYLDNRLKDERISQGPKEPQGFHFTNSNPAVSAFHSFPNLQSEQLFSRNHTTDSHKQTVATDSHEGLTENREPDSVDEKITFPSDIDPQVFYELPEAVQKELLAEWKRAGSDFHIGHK

Each compound was assayed against DNA polymerase iota (Homo sapiens) (UniProt Q9UNA4) (assay: qHTS for Inhibitors of Polymerase Iota). Conditions: Pol iota fluorescent replication assay, 10 min; series mostly up to 115 µM.
In short: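 Fluorescent replication assay read twice, at 0 min and 10 min after adding 50 nM (final) substrate. Enzyme (10 nM) and compounds were first incubated 15 min at room temperature; enzyme-free buffer wells were negative controls.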
Potency means the concentration at half of the fitted maximal effect.

**Q.** With `CC(=O)C1=C(O)C(=O)N(Cc2cccnc2)C1c1ccccc1Cl` (stereo unspecified) as the compound, how does the Potency read?
**A.** inconclusive: 0.562 µM [inhibitor, full curve, poor fit]

**Q.** For `CCC1=[N+](C)c2cccc3cccc(c23)N1C`, which Potency is on record?
**A.** inactive

**Q.** Which Potency does the source give for `COc1cccc(CNC(=O)CN2C(=O)CSc3c2c(C)nn3-c2ccccc2)c1` here?
**A.** inactive

**Q.** How did the Potency turn out when `C/C(=N\NC(=O)c1ccncc1)c1ccc(N2CCOCC2)cc1` was run?
**A.** inconclusive: 6.31 µM [inhibitor, full curve, poor fit]

**Q.** `COCCn1c(SCc2cnc(-c3ccccc3)s2)nnc1-c1ccncc1` was tested. Which Potency did it give?
**A.** inconclusive: 35.5 µM [inhibitor, single point]

**Q.** `CCC(CC)c1nn2cc(-c3ccccc3)nc2s1` was tested. Which Potency did it give?
**A.** inactive

**Q.** With `CCCCSc1nnc2c(n1)OC(c1ccc(C)s1)Nc1ccccc1-2` (stereo unspecified) as the compound, how does the Potency read?
**A.** inactive

**Q.** How did the Potency turn out when `CCOC(=O)c1cc2c(=O)n3ccccc3nc2n(Cc2ccco2)c1=NC(=O)c1ccc(OC)cc1OC` was run?
**A.** inconclusive: 8.91 µM [inhibitor, full curve, poor fit]

**Q.** With `N#CC1=C(N)n2c(s/c(=C\c3cccs3)c2=O)=C(C#N)C1c1cccs1` (stereo unspecified) as the compound, how does the Potency read?
**A.** inconclusive: 12.6 µM [inhibitor, full curve]

**Q.** `CCc1cccc(C)c1NC(=O)CSc1ncn[nH]1` was tested. Which Potency did it give?
**A.** inconclusive: 100 µM [inhibitor, single point]

**Q.** Which Potency does the source give for `O=C(C1CCCN(S(=O)(=O)c2cccs2)C1)N1CCC(N2CCCCC2)CC1` (stereo unspecified) here?
**A.** inconclusive: 7.94 µM [inhibitor, partial curve, poor fit]

**Q.** For `O=C1c2cc(Cl)ccc2OC2(CCNCC2)C12CC(c1ccc(Cl)cc1)=NO2` (stereo unspecified), which Potency is on record?
**A.** inconclusive: 39.8 µM [inhibitor, partial curve, poor fit]

**Q.** How did the Potency turn out when `CCOC(=O)c1c(C)nc2sccn12` was run?
**A.** inconclusive: 89.1 µM [inhibitor, single point]

**Q.** Which Potency does the source give for `CCOc1ccc(C(=O)NC(=S)Nc2ccc(N3CCC(C)CC3)cc2)cc1[N+](=O)[O-]` here?
**A.** inactive

**Q.** Which Potency does the source give for `O=C(O)Cc1sc(NCCc2ccccc2)nc1-c1ccc(F)cc1` here?
**A.** inconclusive: 39.8 µM [inhibitor, partial curve]

**Q.** `COC(=O)c1cc(Br)ccc1-c1ccc(/C=N/n2nnnc2N)o1` was tested. Which Potency did it give?
**A.** inconclusive: 70.8 µM [inhibitor, partial curve, poor fit]

**Q.** `Cc1sc2ncnc(N3CCCC(C)C3)c2c1C` (stereo unspecified) was tested. Which Potency did it give?
**A.** inconclusive: 20 µM [inhibitor, partial curve, poor fit]

**Q.** With `COc1cccc(CNS(=O)(=O)c2ccccc2Br)c1OC` as the compound, how does the Potency read?
**A.** inactive

**Q.** With `CCC(CO)Oc1cc(NCc2ccccc2)c2ncn(C(C)C)c2c1` (stereo unspecified) as the compound, how does the Potency read?
**A.** active: 17.8 µM

**Q.** Which Potency does the source give for `Cc1c(C(=O)OCC(=O)Nc2ccc(S(N)(=O)=O)cc2)oc2c1ccc1ccccc12` here?
**A.** inconclusive: 22.4 µM [inhibitor, single point]

**Q.** How did the Potency turn out when `O=[N+]([O-])c1cc2c(c3cccnc13)COCO2` was run?
**A.** active: 39.8 µM

**Q.** How did the Potency turn out when `CC(C)(C)CC(=O)Nc1cc2c3c(c1)CCN3C(=O)CC2` was run?
**A.** inactive

**Q.** For `CCOC(=O)c1cnn(-c2nc(SC)nc3sc4c(c23)CCC4)c1N`, which Potency is on record?
**A.** inconclusive: 8.91 µM [inhibitor, full curve, poor fit]

**Q.** `O=C(NN1C(=O)/C(=C/c2ccc(O)c([N+](=O)[O-])c2)SC1=S)c1ccccc1Cl` was tested. Which Potency did it give?
**A.** active: 39.8 µM

**Q.** For `O=C(O)c1ccc2c(=O)n3c(nc2c1)/C(=C/c1cccc(Cl)c1Cl)CC3`, which Potency is on record?
**A.** inconclusive: 35.5 µM [inhibitor, partial curve, poor fit]

**Q.** `C=C(C)C(=O)Nc1cccc(C2=NOC3(C2)C[C@H](C(N)=O)N(C(=O)/C=C/C)C3)c1` (stereo partly specified) was tested. Which Potency did it give?
**A.** inconclusive: 50.1 µM [inhibitor, partial curve, poor fit]

**Q.** With `C/C(Cl)=C\Cn1c(Nc2ccc(C)cc2)nc2c1c(=O)n(C)c(=O)n2C` as the compound, how does the Potency read?
**A.** inconclusive: 12.6 µM [inhibitor, partial curve, poor fit]

**Q.** For `CN=c1scc(-c2cccs2)n1/N=C/c1ccc(O)c(O)c1O`, which Potency is on record?
**A.** inconclusive: 1.26 µM [inhibitor, full curve, poor fit]

**Q.** Which Potency does the source give for `CCOC(=O)c1c(NC(=O)CSc2nnc3c(n2)[nH]c2ccccc23)sc2c1CCN(C)C2` here?
**A.** inconclusive: 12.6 µM [inhibitor, full curve, poor fit]

**Q.** `C#CCOCCOCCOCCNc1nc(N2CCN(C(=O)[C@H](CCCCN)n3cc(CCCC)nn3)CC2)nc(N2CCN(C(=O)[C@H](CCCCN)n3cc(CCCC)nn3)CC2)n1` was tested. Which Potency did it give?
**A.** inconclusive: 20 µM [inhibitor, partial curve, poor fit]

**Q.** For `CCCNS(=O)(=O)c1cccc(C(=O)OCc2cc(=O)oc3cc(OC)ccc23)c1`, which Potency is on record?
**A.** inconclusive: 15.8 µM [inhibitor, partial curve, poor fit]

**Q.** For `CCOC(=O)Cc1cc(=O)n2[nH]c(C)cc2n1`, which Potency is on record?
**A.** inconclusive: 28.2 µM [inhibitor, full curve]

**Q.** Which Potency does the source give for `CC(=O)OC(C)C[N+](C)(C)C` (stereo unspecified) here?
**A.** inconclusive: 89.1 µM [inhibitor, single point]

**Q.** How did the Potency turn out when `C/C(=N\NC(=O)c1ccc(-c2ccccc2)cc1)c1ccco1` was run?
**A.** inactive

**Q.** `Cc1nnc(NC(=O)CSc2nnc3ncccn23)s1` was tested. Which Potency did it give?
**A.** inconclusive: 79.4 µM [inhibitor, partial curve]

**Q.** For `CC1=NN(c2ccccc2)C(=O)/C1=C/N(C)C`, which Potency is on record?
**A.** inconclusive: 31.6 µM [inhibitor, single point]

**Q.** `CCN1C(=O)C(CC(=O)Nc2ccccc2)N(Cc2ccccn2)C1=S` (stereo unspecified) was tested. Which Potency did it give?
**A.** inconclusive: 10 µM [inhibitor, partial curve, poor fit]

**Q.** How did the Potency turn out when `CCOC(=O)CCCCC(=O)c1[nH]c(=O)[nH]c1Cn1cnc2ccccc21` was run?
**A.** inconclusive: 100 µM [inhibitor, partial curve]

**Q.** Which Potency does the source give for `Clc1cc(NCc2cccs2)ccc1N1CCOCC1` here?
**A.** inconclusive: 39.8 µM [inhibitor, single point]

**Q.** How did the Potency turn out when `Cc1cccc(NC2=C(NC(=O)c3ccccc3)C(=O)c3ccccc3C2=O)c1` was run?
**A.** inconclusive: 35.5 µM [inhibitor, partial curve, poor fit]

**Q.** How did the Potency turn out when `Cc1nnc(SCC(=O)Nc2ccc(Br)cn2)[nH]c1=O` was run?
**A.** inconclusive: 25.1 µM [inhibitor, partial curve, poor fit]
